# US20120156804
# Chains of the proteins cited; added tags and fusions are not shown. Residues count along the entry.
# UniProt Q92731, whole entry: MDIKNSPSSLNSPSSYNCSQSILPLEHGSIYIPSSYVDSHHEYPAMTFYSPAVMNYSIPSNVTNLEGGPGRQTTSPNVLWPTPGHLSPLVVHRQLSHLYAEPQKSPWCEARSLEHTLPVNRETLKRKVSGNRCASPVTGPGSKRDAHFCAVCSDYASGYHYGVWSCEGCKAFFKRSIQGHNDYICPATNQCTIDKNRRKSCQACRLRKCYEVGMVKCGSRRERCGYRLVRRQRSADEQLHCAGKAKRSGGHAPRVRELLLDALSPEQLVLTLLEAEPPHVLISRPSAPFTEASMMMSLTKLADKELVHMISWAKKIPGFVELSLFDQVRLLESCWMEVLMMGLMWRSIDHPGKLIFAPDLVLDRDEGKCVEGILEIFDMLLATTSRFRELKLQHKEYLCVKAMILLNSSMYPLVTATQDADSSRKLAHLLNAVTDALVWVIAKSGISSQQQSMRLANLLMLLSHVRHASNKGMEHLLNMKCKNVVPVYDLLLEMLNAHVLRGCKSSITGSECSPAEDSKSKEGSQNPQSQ
# UniProt P03372, whole entry: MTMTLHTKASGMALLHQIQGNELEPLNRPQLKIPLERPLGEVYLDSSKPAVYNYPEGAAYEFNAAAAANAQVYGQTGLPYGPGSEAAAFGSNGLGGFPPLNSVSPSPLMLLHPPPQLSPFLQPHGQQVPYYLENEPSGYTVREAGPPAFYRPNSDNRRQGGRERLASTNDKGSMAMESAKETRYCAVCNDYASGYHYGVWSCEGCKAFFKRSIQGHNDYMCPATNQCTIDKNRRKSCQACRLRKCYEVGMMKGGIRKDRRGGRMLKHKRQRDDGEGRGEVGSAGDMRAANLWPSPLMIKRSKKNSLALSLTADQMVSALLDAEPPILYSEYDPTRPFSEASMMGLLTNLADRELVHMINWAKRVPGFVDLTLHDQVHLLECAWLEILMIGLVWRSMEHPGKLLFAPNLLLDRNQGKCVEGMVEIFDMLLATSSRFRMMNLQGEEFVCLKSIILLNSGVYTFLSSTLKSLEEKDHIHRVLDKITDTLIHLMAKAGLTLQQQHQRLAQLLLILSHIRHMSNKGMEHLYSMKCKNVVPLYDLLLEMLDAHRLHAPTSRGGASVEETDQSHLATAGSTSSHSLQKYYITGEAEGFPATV
# UniProt P02769, 25-607: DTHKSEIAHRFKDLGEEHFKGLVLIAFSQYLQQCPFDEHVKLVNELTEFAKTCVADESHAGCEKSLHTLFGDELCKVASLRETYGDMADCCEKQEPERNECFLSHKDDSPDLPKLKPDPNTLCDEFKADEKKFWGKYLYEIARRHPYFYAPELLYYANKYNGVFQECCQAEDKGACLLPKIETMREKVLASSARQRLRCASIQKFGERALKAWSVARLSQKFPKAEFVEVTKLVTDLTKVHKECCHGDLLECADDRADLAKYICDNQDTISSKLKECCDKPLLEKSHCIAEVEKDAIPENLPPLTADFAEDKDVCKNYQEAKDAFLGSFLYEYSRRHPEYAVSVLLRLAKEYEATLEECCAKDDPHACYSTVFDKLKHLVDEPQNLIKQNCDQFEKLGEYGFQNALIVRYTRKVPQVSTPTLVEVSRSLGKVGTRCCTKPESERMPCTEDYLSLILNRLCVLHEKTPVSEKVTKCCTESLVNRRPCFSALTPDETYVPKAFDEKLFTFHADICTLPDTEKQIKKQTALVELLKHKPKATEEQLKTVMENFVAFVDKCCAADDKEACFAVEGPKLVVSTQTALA
# For part of these data: Weaker means in comparison with the reference protein, sequence or condition of that experiment. For at least one entry, the source does not settle the construct or the ends of the probe. For part of these data: No signal at the amounts used counts as a negative. For part of these data: Whether high values mean tight binding is not given here for every scale.
# Experiments:
# [1] = target: Estrogen receptor beta (ERβ) (Homo sapiens) (UniProt Q92731); test: binding assay; conditions: AuNP aggregation assay, purified recombinant protein, protein details: PanVera
# [2] = target: Estrogen receptor alpha (ERα) (Homo sapiens) (UniProt P03372); test: binding assay; conditions: purified recombinant protein, protein details: PanVera
# [3] = target: Estrogen receptor alpha (ERα) (Homo sapiens) (UniProt P03372); test: SPR; conditions: immobilized wtERE on gold chip; no dissociation on switching to 20 or 50 mM KCl; purified recombinant protein; protein details: PanVera
# [4] = target: Bovine serum albumin (BSA) (UniProt P02769); test: binding assay; conditions: AuNP aggregation assay; negative control; purified native protein
sequence,measurement,setting,value
GTCCAAAGTCAGTTCACAGTGATCTGATCAAAGT (double strand) [mutERE],binding result,"[1]; order wtERE>mutERE>scrDNA, variant of wtERE",binds more weakly
same,binding result,"[2]; AuNP aggregation assay, order wtERE>mutERE>scrDNA, variant of wtERE",binds more weakly
GTCCAAAGTCAGGTCACAGTGACCTGATCAAAGT (double strand) [wtERE],binding result,[3],binds
same,binding result,"[1]; 4:1 stoichiometry, 20 mM KCl final",binds
same,binding result,[4],no binding
same,binding result,"[2]; AuNP colorimetric aggregation assay, 2:1 stoichiometry, 80 mM KCl binding buffer pH 7.4, 20 mM KCl final, highest affinity",binds
GTCCAAAGTCAATCGCCAGCACGATGATCAAAGT (double strand) [scrDNA],binding result,"[1]; weak nonspecific binding, more stable than ERβ alone, variant of wtERE",binds more weakly
same,binding result,"[2]; AuNP aggregation assay, no sequence-dependent binding, weak electrostatic contact, more stable than ERα alone, variant of wtERE",binds more weakly
TCCCCCTGCAAGGTCACGGTGGCCACCCCGTGAG (double strand) [pS2 ERE],binding signal (% less stable than wtERE),"[2]; AuNP aggregation assay, A650 difference, 50 mM KCl final",19
